Results from patent US4603121A, “Enkephalin analogs” (G. D. Searle & Co., priority 1984, dated 1986).
Structures can show the parent of a compound that is named as a salt. Part of at least one peptide drawing is inferred or uncertain, most often the ends. Where a SMILES comes first, the peptide text is derived from it.

test system: PBQ-induced writhing in mice; assay: PBQ-Writhing assay; assay type: in vivo; settings: male mice, subcutaneous, ED50 from number of animals protected compared to saline controls
Protocol: PBQ-Writhing assay. Groups of 10 male mice weighing 20 to 35 grams are used for each dose and for the vehicle control. Writhing is induced 30 or 60 minutes following drug or drug vehicle administration by the intraperitoneal injection of a 0.025 percent solution of PBQ and 5 percent ethanol. The number of separate writhing motions occurring in a ten minute period starting 5 minutes following the PBQ challenge is counted for each mouse. A positive antinociceptive affect is assured when an individual animals' writhing frequency is less than or equal to 50 percent of the vehicle control group median frequency. ED50 values based on the number of positive responders per dose group is determined using the method of Litchfield and Wilcoxon. M. R. Fennessy et al. The Assessment of and Problems Involved in the Experimental Evaluation of Narcotic Analgesics. In Methods in Narcotics Research, Marcel Dekker, Inc., New York, 1975. H. Bomberg et al. Use of Writhing Test for Evaluating Analgesic Activity of Narcotic Analgesics, Proc. Soc. Ext. Biol. Med. 118: 763-766, 1965.
The compounds of the invention were evaluated with respect to analgesic activity utilizing the test procedures described previously. Set forth in Table I below are the test results in the writhing assay for certain preferred compounds of the invention within formula I. The data summarized represents the ED50 calculated on the basis of the number of animals protected at a dose of 10 mg/Kg of the active test compound compared to saline controls.

Compound | Activity (ED50 mg/Kg - Administered Subcutaneously)
COC(=O)CCCCCN(C)C(=O)[C@H](CC1CCCCC1)NC(=O)CNC(=O)[C@@H](CCSC)NC(=O)[C@@H](N)Cc1c(C)cc(O)cc1C [Example 52, 2,6-dimethyl-L-tyrosyl-D-methionylglycyl-N-(6-methoxy-6-oxyhexyl)-N-methyl-3-cyclohexyl-L-alaninamide monohydrochloride hemihydrate] (HELM PEPTIDE1{[Cc1cc(O)cc(C)c1C[C@H](N)C(=O)[*:2]].[dM].G.[Cha].[COC(=O)CCCCCN(C)[*:1]]}$$$$V2.0) | 0.40 mg/kg
CSCC[C@@H](NC(=O)[C@H](N)Cc1c(C)cc(O)cc1C)C(=O)NCC(=O)N(C)[C@@H](Cc1ccccc1)C(=O)NCCCCCCOC(C)=O [Example 61, 2,6-dimethyl-D-trosyl-D-methionylglcyl-N-(6-acetyloxyhexyl)-N^α -methyl-L-phenylalaninamide monohydrochloride monohydrate] (HELM PEPTIDE1{[Cc1cc(O)cc(C)c1C[C@@H](N)C(=O)[*:2]].[dM].G.[meF].[CC(=O)OCCCCCCN[*:1]]}$$$$V2.0) | 1.00 mg/kg
COC(=O)CCCCCNC(=O)[C@H](CC1CCCCC1)NC(=O)CNC(=O)[C@@H](CCSC)NC(=O)[C@@H](N)Cc1c(C)cc(O)cc1C [Example 37, 2,6-dimethyl-L-tyrosyl-D-methionylglycyl-N-(6-methoxy-6-oxohexyl)-3-cyclohexyl-L-alaninamide monohydrochloride hemihydrate] | 0.02 mg/kg
CSCC[C@@H](NC(=O)[C@@H](N)Cc1c(C)cc(O)cc1C)C(=O)NCC(=O)N(C)[C@@H](Cc1ccccc1)C(=O)NCCCCCCOC(C)=O [Example 60, 2,6-dimethyl-L-tyrosyl-D-methionylglycyl-N-(6-acetyloxyhexyl)-N^α-methyl-L-phenylalanin-amide monohydrochloride hemihydrate] (HELM PEPTIDE1{[Cc1cc(O)cc(C)c1C[C@H](N)C(=O)[*:2]].[dM].G.[meF].[CC(=O)OCCCCCCN[*:1]]}$$$$V2.0) | 0.08 mg/kg
